Test results reported in article PMC7850899, “Nutrient transceptors physically interact with the yeast S6/protein kinase B homolog, Sch9, a TOR kinase target” (Biochemical Journal, 2021).
No constants are given. Whether binding was seen depends on the method and setting. Binding seen in cells or lysates may run through a third protein. Some binding calls cover weakened binding; strength is not graded here. Sequences can lack the tags named with a protein.

Tests used:
Assay in all cases: split reporter; BiFC with split Citrine on genomically tagged proteins in living S. cerevisiae, confocal microscopy; cells starved for the transceptor's substrate (nitrogen 24 h, phosphate 72 h, sulfate 48 h); Gnp1 and Mup3 strains also in exponential growth
[1] = biological target: T1, Sul1 tagged with the N-terminal half of Citrine (SUL1-N-Citrine) (S. cerevisiae (endogenous gene, tagged)) (UniProt P38359)
T1 sequence: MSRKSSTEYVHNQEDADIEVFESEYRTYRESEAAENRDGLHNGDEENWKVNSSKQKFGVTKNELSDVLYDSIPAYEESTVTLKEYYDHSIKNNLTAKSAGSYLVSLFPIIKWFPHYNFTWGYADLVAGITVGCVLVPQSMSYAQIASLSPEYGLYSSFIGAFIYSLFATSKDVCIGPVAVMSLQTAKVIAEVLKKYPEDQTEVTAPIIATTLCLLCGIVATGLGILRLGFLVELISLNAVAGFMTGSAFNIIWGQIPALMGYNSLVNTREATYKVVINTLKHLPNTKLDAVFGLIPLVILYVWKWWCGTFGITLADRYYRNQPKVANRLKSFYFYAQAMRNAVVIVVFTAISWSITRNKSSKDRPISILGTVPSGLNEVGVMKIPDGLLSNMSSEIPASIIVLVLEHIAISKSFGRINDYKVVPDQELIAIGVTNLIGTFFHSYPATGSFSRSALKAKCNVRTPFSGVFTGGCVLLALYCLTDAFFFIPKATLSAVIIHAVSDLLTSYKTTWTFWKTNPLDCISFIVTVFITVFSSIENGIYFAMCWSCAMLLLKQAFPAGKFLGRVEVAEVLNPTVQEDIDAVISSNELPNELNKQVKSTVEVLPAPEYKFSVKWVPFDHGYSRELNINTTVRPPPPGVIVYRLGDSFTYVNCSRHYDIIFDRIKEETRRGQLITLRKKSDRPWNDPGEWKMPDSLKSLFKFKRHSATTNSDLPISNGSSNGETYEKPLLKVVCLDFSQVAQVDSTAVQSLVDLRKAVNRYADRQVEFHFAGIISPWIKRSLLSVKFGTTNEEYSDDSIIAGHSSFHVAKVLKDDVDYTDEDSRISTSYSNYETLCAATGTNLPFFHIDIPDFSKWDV

[2] = biological target: T2, Gap1 tagged with the N-terminal half of Citrine (GAP1-N-Citrine) (S. cerevisiae (endogenous gene, tagged)) (UniProt P19145)
T2 sequence: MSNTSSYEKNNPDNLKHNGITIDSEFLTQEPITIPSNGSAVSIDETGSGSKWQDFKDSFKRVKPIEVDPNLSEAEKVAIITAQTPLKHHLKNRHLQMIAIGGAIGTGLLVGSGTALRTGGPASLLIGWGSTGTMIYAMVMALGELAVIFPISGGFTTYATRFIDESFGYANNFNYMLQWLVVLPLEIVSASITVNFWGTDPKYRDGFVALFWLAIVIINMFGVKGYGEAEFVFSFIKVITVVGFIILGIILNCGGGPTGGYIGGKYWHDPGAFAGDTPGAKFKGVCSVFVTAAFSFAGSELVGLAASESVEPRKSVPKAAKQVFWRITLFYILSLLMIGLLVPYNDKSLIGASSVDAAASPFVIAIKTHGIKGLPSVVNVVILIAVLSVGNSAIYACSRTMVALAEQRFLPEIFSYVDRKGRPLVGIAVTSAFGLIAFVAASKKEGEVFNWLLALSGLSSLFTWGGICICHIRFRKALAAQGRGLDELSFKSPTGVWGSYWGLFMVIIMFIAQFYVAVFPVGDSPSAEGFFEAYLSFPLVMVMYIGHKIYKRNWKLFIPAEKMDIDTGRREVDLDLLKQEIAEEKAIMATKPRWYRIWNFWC

[3] = biological target: T3, Gnp1 tagged with the N-terminal half of Citrine (GNP1-N-Citrine) (S. cerevisiae (endogenous gene, tagged)) (UniProt P48813)
T3 sequence: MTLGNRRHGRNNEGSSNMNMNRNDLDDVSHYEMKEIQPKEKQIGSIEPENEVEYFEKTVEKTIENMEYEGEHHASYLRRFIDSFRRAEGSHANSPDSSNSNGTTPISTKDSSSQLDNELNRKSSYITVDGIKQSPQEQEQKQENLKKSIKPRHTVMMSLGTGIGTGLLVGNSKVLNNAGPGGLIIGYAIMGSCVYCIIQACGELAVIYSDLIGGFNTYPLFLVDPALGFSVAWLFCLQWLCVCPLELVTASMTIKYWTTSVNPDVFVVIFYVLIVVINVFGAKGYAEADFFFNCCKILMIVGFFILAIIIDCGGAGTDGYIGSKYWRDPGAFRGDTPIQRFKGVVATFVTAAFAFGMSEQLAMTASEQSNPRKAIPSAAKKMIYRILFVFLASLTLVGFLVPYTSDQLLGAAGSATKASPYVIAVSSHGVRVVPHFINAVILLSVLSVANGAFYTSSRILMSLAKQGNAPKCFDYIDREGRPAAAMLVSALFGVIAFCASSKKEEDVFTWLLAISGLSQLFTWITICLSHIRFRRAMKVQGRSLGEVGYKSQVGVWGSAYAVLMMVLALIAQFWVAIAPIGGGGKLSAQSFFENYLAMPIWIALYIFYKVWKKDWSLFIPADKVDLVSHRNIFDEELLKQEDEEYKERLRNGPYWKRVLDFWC

binding [1]: binds
binding [2]: binds
binding [3]: no binding
B1: Sch9 tagged with the C-terminal half of Citrine (SCH9-C-Citrine) (enzyme, UniProt P11792 1-824)
chain: MMNFFTSKSSNQDTGFSSQHQHPNGQNNGNNNSSTAGNDNGYPCKLVSSGPCASSNNGALFTNFTLQTATPTTAISQDLYAMGTTGITSENALFQMKSMNNGISSVNNNNSNTPTIITTSQEETNAGNVHGDTGGNSLQNSEDDNFSSSSTTKCLLSSTSSLSINQREAAAAAYGPDTDIPRGKLEVTIIEARDLVTRSKDSQPYVVCTFESSEFISNGPESLGAINNNNNNNNNNQHNQNQHINNNNENTNPDAASQHHNNNSGWNGSQLPSIKEHLKKKPLYTHRSSSQLDQLNSCSSVTDPSKRSSNSSSGSSNGPKNDSSHPIWHHKTTFDVLGSHSELDISVYDAAHDHMFLGQVRLYPMIHNLAHASQHQWHSLKPRVIDEVVSGDILIKWTYKQTKKRHYGPQDFEVLRLLGKGTFGQVYQVKKKDTQRIYAMKVLSKKVIVKKNEIAHTIGERNILVTTASKSSPFIVGLKFSFQTPTDLYLVTDYMSGGELFWHLQKEGRFSEDRAKFYIAELVLALEHLHDNDIVYRDLKPENILLDANGNIALCDFGLSKADLKDRTNTFCGTTEYLAPELLLDETGYTKMVDFWSLGVLIFEMCCGWSPFFAENNQKMYQKIAFGKVKFPRDVLSQEGRSFVKGLLNRNPKHRLGAIDDGRELRAHPFFADIDWEALKQKKIPPPFKPHLVSETDTSNFDPEFTTASTSYMNKHQPMMTATPLSPAMQAKFAGFTFVDESAIDEHVNNNRKFLQNSYFMEPGSFIPGNPNLPPDEDVIDDDGDEDINDGFNQEKNMNNSHSQMDFDGDQHMDDEFVSGRFEI
